No constants are given. Whether binding was seen depends on the method and setting. Binding calls can cover weak binding; strength is not graded here.

The experiment deals with T1, GLD-1 (C. elegans) (UniProt Q17339).
T1 sequence: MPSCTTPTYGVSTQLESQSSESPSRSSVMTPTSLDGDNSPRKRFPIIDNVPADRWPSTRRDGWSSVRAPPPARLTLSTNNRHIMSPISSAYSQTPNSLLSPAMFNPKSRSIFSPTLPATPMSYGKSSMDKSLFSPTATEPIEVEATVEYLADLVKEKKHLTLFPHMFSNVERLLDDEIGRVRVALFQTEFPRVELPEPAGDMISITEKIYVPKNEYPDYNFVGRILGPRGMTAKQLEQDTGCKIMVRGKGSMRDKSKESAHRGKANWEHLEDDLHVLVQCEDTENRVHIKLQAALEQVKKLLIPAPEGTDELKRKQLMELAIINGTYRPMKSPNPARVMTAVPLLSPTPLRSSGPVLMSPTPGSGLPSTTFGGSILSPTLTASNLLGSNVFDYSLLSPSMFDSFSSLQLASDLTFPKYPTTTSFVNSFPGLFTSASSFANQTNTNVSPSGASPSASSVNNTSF
Description: two-hybrid; yeast two-hybrid; GLD-1 as bait in pAS1 (DNA binding), FOG-2 deletion constructs in pACTII (activation); 20 mM 3-amino-triazole; done in one direction only because FOG-2 auto-activates in pAS1.
For “FOG-2 C-terminal deletion of 64 aa (263 aa) (C. elegans) (domain or fragment)”, the binding entry is listed as “no binding”.
With “FOG-2 C-terminal deletion of 76 aa (251 aa; essentially all of exon 4 removed) (C. elegans) (domain or fragment)”, the binding entry is “no binding”.
For FTR-1 full-length (318 aa) (C. elegans) the value was “no binding”.
The value for “FOG-2 C-terminal deletion of nine aa (318 aa) (C. elegans) (domain or fragment)” was “binds”; that for “FOG-2 C-terminal deletion of 28 aa (299 aa) (C. elegans) (domain or fragment)” was “binds”.
As for “FOG-2 full-length (327 aa) (from UniProt Q2YS43)”, the binding entry is on record as “binds”.

(Values after article PMC539060.)
